In the supplement of paper PMC5949888:
Most values lie at the floor of the assay. Slopes are relative: functional sequences can read slightly below zero.

What follows are substances tested on Saccharomyces cerevisiae PS128 hsf1 delta, HSF1(1-493) fusion (assay: growth estimate (transactivation domain function in HSF1 fusion, heat-shock survival) (a.u. (slope of normalised read count over time)); higher = stronger growth at 37°C, i.e. more transactivation activity). Details: library: random library.

| Substance | growth estimate |
| --- | --- |
| RMNRASCIN | -0.205 |
| RMP | < -0.25 |
| RMPSQSGSGKGIGWAKD | < -0.25 |
| RMRSVADKLHDGRLGAITPR | < -0.25 |
| RMRTTRAMMIVPDRGGHEPR | < -0.25 |
| RMSAPP | < -0.25 |
| RMSMLITNGFASCPPL | < -0.25 |
| RMSQKLHRDT | < -0.25 |
| RNAECLVPSRWLA | < -0.25 |
| RNAGRHSTDLVLFHLALYRS | -0.245 |
| RNALVGVDGITLCRHGRVRT | < -0.25 |
| RNAVVRSNFRSARGRS | < -0.25 |
| RNCTGNRSRGIRAFFADLGP | < -0.25 |
| RNDAKRRTLTSETGAETTGR | < -0.25 |
| RNDQA | < -0.25 |
| RNEG | < -0.25 |
| RNFVRSGHDSVDRGRNRVRG | < -0.25 |
| RNGGIQIWNSSSRAIPAGLR | < -0.25 |
| RNGSHDVEERSGLSNHRTYV | < -0.25 |
| RNILRS | -0.241 |
| RNKPETQATAMERHCRTEYV | < -0.25 |
| RNLFR | < -0.25 |
| RNPASRKAGDIEIVRSLMFR | < -0.25 |
| RNPERSPHGSAVSYRT | < -0.25 |
| RNPHVP | < -0.25 |

| Substance | growth estimate |
| --- | --- |
| RNQANL | < -0.25 |
| RNQGAFESQFTSHSR | < -0.25 |
| RNQREVDGHDK | < -0.25 |
| RNQVPKP | < -0.25 |
| RNRGSIYALLGGFPLDVVTT | < -0.25 |
| RNRICGISQKICYLIAYNAD | < -0.25 |
| RNRVSLS | < -0.25 |
| RNRYLADELSDMTRG | < -0.25 |
| RNSL | < -0.25 |
| RNTRVESLTGP | < -0.25 |
| RNVTKT | < -0.25 |
| RNYNWGYKWTFHSCFSRCVS | < -0.25 |
| RPAETGLAGTAGVQLTRPRV | < -0.25 |
| RPAGRHTMCGISKGRRTGSR | < -0.25 |
| RPAGSPTKGRSTRAPGSICH | < -0.25 |
| RPASCPDSAYPPSR | < -0.25 |
| RPASRWGVRDGTHWSHRFAD | < -0.25 |
| RPAVATLVSYDSLAEIVGTK | -0.246 |
| RPAVCFHVRLSVGYNRTVSA | < -0.25 |
| RPCRKV | < -0.25 |
| RPEDICYVSPLLIWIGSQPA | < -0.25 |
| RPEIRPGHCAG | < -0.25 |
| RPELPGMFYCSQPGDQSPTL | < -0.25 |
| RPG | < -0.25 |
| RPGARNQCGHFAATEETMGS | < -0.25 |

| Substance | growth estimate |
| --- | --- |
| RPGGQLTGVHSMTIGRDRRP | < -0.25 |
| RPGHEISKVKRSLLLP | < -0.25 |
| RPGISTRVSNSWLRPLISEV | < -0.25 |
| RPGKPVFMGGMT | < -0.25 |
| RPGRGLWADVKAVKQLLNAR | -0.242 |
| RPGRPV | < -0.25 |
| RPGSYVPGKMGFYENPSNWV | < -0.25 |
| RPGWVTLLSRVDRNCLLDER | < -0.25 |
| RPHGSQNHDV | < -0.25 |
| RPHNEPFFRAWWGGFGSG | < -0.25 |
| RPLGTGIPTTYYHPGRY | < -0.25 |
| RPLHAGPP | < -0.25 |
| RPM | < -0.25 |
| RPML | < -0.25 |
| RPMTGKPTSPRSVIEVTGLF | -0.246 |
| RPNCTLWARRCPRYSPPGKS | -0.246 |
| RPNQRAQTLTLLELTGRGSG | < -0.25 |
| RPPDSTSRAASNAASVLI | < -0.25 |
| RPPDVLFLVRFRLIATRETM | < -0.25 |
| RPPLGRRFRPSERHETFEVA | -0.209 |
| RPQSVLKNAGRLGKR | -0.107 |
| RPRDIGGS | -0.241 |
| RPRSHYVIQAHAYLR | < -0.25 |
| RPSANRAIETSRETGCRPDE | < -0.25 |
| RPSFGPVDGSASNLKPSETC | < -0.25 |

| Substance | growth estimate |
| --- | --- |
| RPSSLILGYKYTVYALTTDT | < -0.25 |
| RPSVRCGSNESRFGGVKIHP | -0.231 |
| RPTEIELARCGPSAYPRMRA | < -0.25 |
| RPTLRGAPVT | < -0.25 |
| RPVFGCPLRWLQRQRRVHKE | < -0.25 |
| RPVRFDKGESQVGGASG | < -0.25 |
| RPVWYPRSATHRCGTACPVN | < -0.25 |
| RPYQGDCASFAPSST | < -0.25 |
| RPYQLQICGDDYGQLIMR | < -0.25 |
| RQCCGGSFLLMLAYSI | < -0.25 |
| RQERCMLGNYSVTVNSMRDV | < -0.25 |
| RQFGLTRRASHILPATNLFA | < -0.25 |
| RQFRL | < -0.25 |
| RQGEQGTPVRVGPGNRYAVK | < -0.25 |
| RQGQSGSEPG | < -0.25 |
| RQGRLYTLVGKNSRSLRVPA | < -0.25 |
| RQIAISDLRKTRCRIVASRM | < -0.25 |
| RQIPWDPFRPRSTCVHVHAA | < -0.25 |
| RQIRYYSVRQDQQGPAPTRF | < -0.25 |
| RQLIS | < -0.25 |
| RQLMWGRLLISELVLPRGGI | < -0.25 |
| RQLNHR | < -0.25 |
| RQPEQTRHPGKPR | < -0.25 |
| RQPLHIIGGVRSPNEGYSRS | < -0.25 |
| RQPTKIPA | < -0.25 |

| Substance | growth estimate |
| --- | --- |
| RQQ | < -0.25 |
| RQRA | < -0.25 |
| RQRRGSRYRASMRGR | -0.243 |
| RQSESGVPKGIVLWLGQLSR | < -0.25 |
| RQSKALHGS | < -0.25 |
| RQVLADKLHGILGGVCEGTG | < -0.25 |
| RQVSSWWEDKTPYAKVSGRG | < -0.25 |
| RQVTAGSPRTYSH | < -0.25 |
| RQVTYFY | < -0.25 |
| RQY | < -0.25 |
| RQYLI | < -0.25 |
| RQYSLPNGSNAEHFWVYRAT | < -0.25 |
| RRAAGCQLYCSSG | < -0.25 |
| RRADEYSGVMRA | < -0.25 |
| RRAIVKAHVASRVLGKHHPG | < -0.25 |
| RRCIGDNSDRHIASNARQRS | < -0.25 |
| RRCIILHNALGDVQLQLFTL | -0.231 |
| RRCLAHQ | < -0.25 |
| RRCS | < -0.25 |
| RRCT | < -0.25 |
| RRCVHHSFLRDMRLRLKSHP | < -0.25 |
| RRDGVRGLGLVVMASLG | < -0.25 |
| RRDINPPC | < -0.25 |
| RRDPYCADTDMLDTLQRAGS | < -0.25 |
| RREEIYLRHCRQVRGDPRDL | -0.25 |

| Substance | growth estimate |
| --- | --- |
| RREGVQCICLVVCIVRDVRT | < -0.25 |
| RREHHNHVCEPGEENSQGLH | -0.231 |
| RRERFIFECLNHSCTGSPGW | < -0.25 |
| RRFKPEVSFLGCNGTV | -0.185 |
| RRFRDGADRGIRKLGKFSPS | < -0.25 |
| RRFRKIYRHF | < -0.25 |
| RRFTDV | < -0.25 |
| RRFTPSALLLGMKRY | < -0.25 |
| RRGDFDLTTN | < -0.25 |
| RRGGCSGFSNRKVA | < -0.25 |
| RRGGSEALRHDRHRGGLVSR | < -0.25 |
| RRGIERAYLWERVWPLFGFF | < -0.25 |
| RRGKQGTFLPKKMAQPARAA | < -0.25 |
| RRGLCEGGVGGYDI | < -0.25 |
| RRGLSNREQHECAHYGFARR | -0.239 |
| RRGPYVDLESFDHSYVRLYK | < -0.25 |
| RRGRPRGGPTFQGFPYR | < -0.25 |
| RRGRRSAELLCGTRNAGVIG | < -0.25 |
| RRGRVINESVHC | < -0.25 |
| RRGRVSRSA | < -0.25 |
| RRGSEACGTLPD | < -0.25 |
| RRGTEPLLAAMPGPILYASL | < -0.25 |
| RRGTHFPLPHVWRIYSSEHQ | < -0.25 |
| RRHNETQQYDIFAGQTSYGR | < -0.25 |
| RRHNGLRNGLVAFLVRNASL | < -0.25 |

| Substance | growth estimate |
| --- | --- |
| RRHPNPGG | -0.241 |
| RRIILFMYS | < -0.25 |
| RRITIIELGRR | < -0.25 |
| RRIYYPDNREMPRVILATLP | < -0.25 |
| RRKFSVKRTALTGGGRPLFE | < -0.25 |
| RRKRPFGSGQSKCVLNPFYT | < -0.25 |
| RRKSIRYKTNGVLGQTLLAQ | < -0.25 |
| RRKVGKDTSQQDADQRPMLA | < -0.25 |
| RRLAVAYRNANKMSTRGAFN | < -0.25 |
| RRLGSRPVSSPGELTMC | < -0.25 |
| RRLKFSPWPCIYVLGSRIRY | < -0.25 |
| RRLPGEIDTGGHNPLFLTAV | -0.237 |
| RRLQLCKVEAWGETNADGFR | < -0.25 |
| RRLSVNQRETPVRIIG | < -0.25 |
| RRMQRGVYS | < -0.25 |
| RRMRGAPLRIGLRVYHVPWG | < -0.25 |
| RRMRLFALD | < -0.25 |
| RRMVINVKGKNHAP | < -0.25 |
| RRNFGVRKETEWVPGEPIKV | -0.229 |
| RRNLNICDLEVPFKTLPWRA | < -0.25 |
| RRNLNLDPPSSLASSHGRMI | < -0.25 |
| RRPAGLHGRIAG | < -0.25 |
| RRPESGPHSSSVVVNVF | < -0.25 |
| RRPNGRRSEVLQCVREYRLC | < -0.25 |
| RRPPAANPFQRGRQSSRVSR | < -0.25 |

No new results follow: an excerpt of the list.

| Substance | growth estimate |
| --- | --- |
| RRFKPEVSFLGCNGTV | -0.185 |
| RRFRDGADRGIRKLGKFSPS | < -0.25 |
| RRFRKIYRHF | < -0.25 |
| RRFTDV | < -0.25 |
| RRFTPSALLLGMKRY | < -0.25 |
| RRGDFDLTTN | < -0.25 |
| RRGGCSGFSNRKVA | < -0.25 |
| RRGGSEALRHDRHRGGLVSR | < -0.25 |
| RRGIERAYLWERVWPLFGFF | < -0.25 |
| RRGKQGTFLPKKMAQPARAA | < -0.25 |
| RRGLCEGGVGGYDI | < -0.25 |
| RRGLSNREQHECAHYGFARR | -0.239 |
| RRGPYVDLESFDHSYVRLYK | < -0.25 |
| RRGRPRGGPTFQGFPYR | < -0.25 |
| RRGRRSAELLCGTRNAGVIG | < -0.25 |
| RRGRVINESVHC | < -0.25 |
| RRGRVSRSA | < -0.25 |
| RRGSEACGTLPD | < -0.25 |
| RRGTEPLLAAMPGPILYASL | < -0.25 |
| RRGTHFPLPHVWRIYSSEHQ | < -0.25 |
| RRHNETQQYDIFAGQTSYGR | < -0.25 |
| RRHNGLRNGLVAFLVRNASL | < -0.25 |
| RRHPNPGG | -0.241 |
| RRIILFMYS | < -0.25 |
| RRITIIELGRR | < -0.25 |
| RRIYYPDNREMPRVILATLP | < -0.25 |
| RRKFSVKRTALTGGGRPLFE | < -0.25 |
| RRKRPFGSGQSKCVLNPFYT | < -0.25 |
| RRKSIRYKTNGVLGQTLLAQ | < -0.25 |
| RRKVGKDTSQQDADQRPMLA | < -0.25 |
| RRLAVAYRNANKMSTRGAFN | < -0.25 |
| RRLGSRPVSSPGELTMC | < -0.25 |
| RRLKFSPWPCIYVLGSRIRY | < -0.25 |
| RRLPGEIDTGGHNPLFLTAV | -0.237 |
| RRLQLCKVEAWGETNADGFR | < -0.25 |
| RRLSVNQRETPVRIIG | < -0.25 |
| RRMQRGVYS | < -0.25 |
| RRMRGAPLRIGLRVYHVPWG | < -0.25 |
| RRMRLFALD | < -0.25 |
| RRMVINVKGKNHAP | < -0.25 |
| RRNFGVRKETEWVPGEPIKV | -0.229 |
| RRNLNICDLEVPFKTLPWRA | < -0.25 |
| RRNLNLDPPSSLASSHGRMI | < -0.25 |
| RRPAGLHGRIAG | < -0.25 |
| RRPESGPHSSSVVVNVF | < -0.25 |
| RRPNGRRSEVLQCVREYRLC | < -0.25 |

Additional entries

| Substance | growth estimate |
| --- | --- |
| RRQAQRPGIGRLAHATRAGT | < -0.25 |
| RRQETG | < -0.25 |
| RRRAGHRGAGGAAISPRARY | < -0.25 |
| RRRCILRHYELSSWSTVPGY | < -0.25 |
| RRRKYHNNLIPPMRFNYSSA | -0.213 |
| RRRRFRFGRRRQLRHMRVGI | < -0.25 |
| RRRRI | < -0.25 |
| RRRRRLSYAPKSLGRCGQGR | < -0.25 |
| RRRSISTRRGNSGATGAAHY | < -0.25 |
| RRRTLVSGIPWVINRGFIAD | < -0.25 |
| RRRTPHPLLLKSGTASSSQA | < -0.25 |
| RRRTQYITVRVPVQMLDALQ | < -0.25 |
| RRRVSVRLTGRGLLHVPDAS | < -0.25 |
| RRRYPSTLIETKLIPELLLR | < -0.25 |
| RRSDVQRSSLIRRSKQRREG | < -0.25 |
| RRSKDLSRTVLGFSGWQFC | < -0.25 |
| RRSLVTYVTRSSKV | < -0.25 |
| RRSTVRRFVT | < -0.25 |
| RRSWSCQSIA | -0.246 |
